According to article PMC8523720:
No constants are given. Whether binding was seen depends on the method and setting. Binding seen in cells or lysates may run through a third protein. Some results given as binding are weak or reduced against the parent protein; the word gives no strength.

Target: GRP78 (human (endogenous in Huh7)), P11021
Experiment: co-IP; immunoprecipitates from lysates of sorafenib-resistant Huh7 cells, endogenous proteins, immunoblot; GRP78-IRE1α tested with or without RCN1 silencing
Settings: remark: other sources report otherwise

B1: Reticulocalbin 1 (RCN1), Q15293 30-331 (protein)
chain: KPTVRKERVVRPDSELGERPPEDNQSFQYDHEAFLGKEDSKTFDQLTPDESKERLGKIVDRIDNDGDGFVTTEELKTWIKRVQKRYIFDNVAKVWKDYDRDKDDKISWEEYKQATYGYYLGNPAEFHDSSDHHTFKKMLPRDERRFKAADLNGDLTATREEFTAFLHPEEFEHMKEIVVLETLEDIDKNGDGFVDQDEYIADMFSHEENGPEPDWVLSEREQFNEFRDLNKDGKLDKDEIRHWILPQDYDHAQAEARHLVYESDKNKDEKLTKEEILENWNMFVGSQATNYGEDLTKNHDEL
**Q.** How did the binding turn out when B1 was run?
**A.** binds
